# According to US20030170203A1:
# Amino acid sequences for entries named in this document (tags omitted). Residues count along the entry.
# UniProt P25445, residues 191-335: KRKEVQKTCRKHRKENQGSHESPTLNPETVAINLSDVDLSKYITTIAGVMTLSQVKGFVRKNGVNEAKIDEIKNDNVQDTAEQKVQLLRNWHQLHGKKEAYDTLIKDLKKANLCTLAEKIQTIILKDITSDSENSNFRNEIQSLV
# UniProt Q13158: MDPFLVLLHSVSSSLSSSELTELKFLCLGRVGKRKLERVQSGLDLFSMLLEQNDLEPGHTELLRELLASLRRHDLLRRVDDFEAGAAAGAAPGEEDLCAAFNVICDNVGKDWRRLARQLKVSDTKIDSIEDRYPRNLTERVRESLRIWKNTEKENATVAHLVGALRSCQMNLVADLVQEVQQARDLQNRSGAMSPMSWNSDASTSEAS
# UniProt O95150, residues 72-251: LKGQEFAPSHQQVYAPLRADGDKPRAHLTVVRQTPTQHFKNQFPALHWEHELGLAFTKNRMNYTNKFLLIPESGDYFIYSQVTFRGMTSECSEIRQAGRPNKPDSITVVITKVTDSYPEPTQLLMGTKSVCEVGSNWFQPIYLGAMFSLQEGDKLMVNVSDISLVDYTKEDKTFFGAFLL
# No constants are given. Whether binding was seen depends on the method and setting. For some assays here: Binding seen in cells or lysates may run through a third protein. Some binding calls cover weakened binding; strength is not graded here.
# Columns and labels:
# [1] = target: GST fusion of the cytoplasmic domain of Fas (UniProt P25445); experiment: GST pull-down of in vitro translated 35S-labeled protein, SDS-PAGE and autoradiography
# [2] = target: T1, death domain truncated DR3 (DR3_DD, aa 1-345) on cells (human) (UniProt Q93038); experiment: flow cytometry on transiently transfected cells
# T1 sequence: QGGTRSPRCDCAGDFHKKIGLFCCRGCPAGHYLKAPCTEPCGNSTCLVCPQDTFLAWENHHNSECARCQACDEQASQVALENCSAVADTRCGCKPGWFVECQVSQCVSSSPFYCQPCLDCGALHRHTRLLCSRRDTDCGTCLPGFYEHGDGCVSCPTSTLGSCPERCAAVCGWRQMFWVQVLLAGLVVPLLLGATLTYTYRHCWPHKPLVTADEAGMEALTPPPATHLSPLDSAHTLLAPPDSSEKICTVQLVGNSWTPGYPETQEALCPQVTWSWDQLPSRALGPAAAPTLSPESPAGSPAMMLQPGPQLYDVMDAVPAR
binding [1],Substance,binding [2]
binds,FADD (from UniProt Q13158 1-208),
,FLAG-tagged soluble form of TNF-gamma-beta (aa 72-251) (from UniProt O95150 72-251) (ligand),binds
